Assay results published in the supplement of paper PMC12067093, “Discovery and optimisation of a covalent ligand for TRIM25 and its application to targeted protein ubiquitination” (Chemical Science, 2025).
Some of the results follow.

Sequences of proteins named here, by UniProt entry; tags and fusion partners are left off. A change or cut given only in a name is not applied to a line headed by its entry.
UniProt Q96ME1: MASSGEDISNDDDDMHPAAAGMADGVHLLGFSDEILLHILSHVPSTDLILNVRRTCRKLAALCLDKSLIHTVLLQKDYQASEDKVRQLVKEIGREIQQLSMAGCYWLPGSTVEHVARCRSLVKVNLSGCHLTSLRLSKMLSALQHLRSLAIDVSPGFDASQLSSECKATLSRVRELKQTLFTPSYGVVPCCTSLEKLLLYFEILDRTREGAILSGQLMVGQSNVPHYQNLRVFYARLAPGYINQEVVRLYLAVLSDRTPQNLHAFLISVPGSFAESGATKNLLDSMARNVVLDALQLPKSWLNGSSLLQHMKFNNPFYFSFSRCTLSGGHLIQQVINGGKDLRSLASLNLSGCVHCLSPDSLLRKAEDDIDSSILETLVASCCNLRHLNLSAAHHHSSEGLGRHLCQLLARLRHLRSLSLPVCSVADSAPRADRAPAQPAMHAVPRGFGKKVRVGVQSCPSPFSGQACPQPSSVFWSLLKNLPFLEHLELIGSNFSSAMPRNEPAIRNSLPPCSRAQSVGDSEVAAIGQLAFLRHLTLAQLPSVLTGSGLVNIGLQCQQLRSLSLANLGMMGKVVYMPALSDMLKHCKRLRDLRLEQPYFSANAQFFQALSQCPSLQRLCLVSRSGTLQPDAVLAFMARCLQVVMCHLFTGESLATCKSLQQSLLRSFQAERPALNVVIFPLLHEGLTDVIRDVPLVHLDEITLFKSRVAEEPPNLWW
UniProt Q9NSD9: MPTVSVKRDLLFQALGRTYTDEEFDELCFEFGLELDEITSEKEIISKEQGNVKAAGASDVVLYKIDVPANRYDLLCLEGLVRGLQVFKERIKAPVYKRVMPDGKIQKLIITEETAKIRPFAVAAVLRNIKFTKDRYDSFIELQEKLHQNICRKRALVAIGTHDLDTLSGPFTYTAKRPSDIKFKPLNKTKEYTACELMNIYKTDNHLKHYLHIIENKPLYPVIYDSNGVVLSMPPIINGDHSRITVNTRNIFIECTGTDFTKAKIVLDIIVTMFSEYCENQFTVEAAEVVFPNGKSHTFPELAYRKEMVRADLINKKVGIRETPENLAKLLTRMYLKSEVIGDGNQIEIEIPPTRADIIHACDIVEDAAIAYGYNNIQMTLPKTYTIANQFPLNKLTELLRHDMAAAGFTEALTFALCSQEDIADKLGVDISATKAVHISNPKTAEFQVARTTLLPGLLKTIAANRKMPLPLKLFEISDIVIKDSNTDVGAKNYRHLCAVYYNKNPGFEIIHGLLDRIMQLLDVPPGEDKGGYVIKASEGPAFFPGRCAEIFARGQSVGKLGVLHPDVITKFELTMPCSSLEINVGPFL
UniProt Q9Y324: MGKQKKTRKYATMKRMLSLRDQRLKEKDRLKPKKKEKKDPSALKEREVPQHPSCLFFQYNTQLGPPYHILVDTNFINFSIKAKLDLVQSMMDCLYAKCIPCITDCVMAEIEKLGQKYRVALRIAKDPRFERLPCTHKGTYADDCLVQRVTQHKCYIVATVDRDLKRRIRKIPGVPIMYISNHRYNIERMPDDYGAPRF
UniProt Q9BYI3: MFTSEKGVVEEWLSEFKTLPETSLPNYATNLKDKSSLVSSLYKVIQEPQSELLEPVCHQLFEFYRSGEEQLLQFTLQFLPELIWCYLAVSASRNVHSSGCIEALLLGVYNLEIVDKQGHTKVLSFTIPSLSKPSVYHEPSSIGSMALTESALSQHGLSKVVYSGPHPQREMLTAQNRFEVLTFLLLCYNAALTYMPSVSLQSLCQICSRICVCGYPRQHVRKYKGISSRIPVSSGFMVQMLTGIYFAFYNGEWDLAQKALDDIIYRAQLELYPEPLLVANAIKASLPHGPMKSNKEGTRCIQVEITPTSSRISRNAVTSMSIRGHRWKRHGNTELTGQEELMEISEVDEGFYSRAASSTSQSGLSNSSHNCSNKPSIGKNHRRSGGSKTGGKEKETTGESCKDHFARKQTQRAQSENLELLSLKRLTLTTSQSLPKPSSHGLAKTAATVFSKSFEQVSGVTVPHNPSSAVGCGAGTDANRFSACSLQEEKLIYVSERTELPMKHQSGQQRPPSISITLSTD
UniProt Q8TB52: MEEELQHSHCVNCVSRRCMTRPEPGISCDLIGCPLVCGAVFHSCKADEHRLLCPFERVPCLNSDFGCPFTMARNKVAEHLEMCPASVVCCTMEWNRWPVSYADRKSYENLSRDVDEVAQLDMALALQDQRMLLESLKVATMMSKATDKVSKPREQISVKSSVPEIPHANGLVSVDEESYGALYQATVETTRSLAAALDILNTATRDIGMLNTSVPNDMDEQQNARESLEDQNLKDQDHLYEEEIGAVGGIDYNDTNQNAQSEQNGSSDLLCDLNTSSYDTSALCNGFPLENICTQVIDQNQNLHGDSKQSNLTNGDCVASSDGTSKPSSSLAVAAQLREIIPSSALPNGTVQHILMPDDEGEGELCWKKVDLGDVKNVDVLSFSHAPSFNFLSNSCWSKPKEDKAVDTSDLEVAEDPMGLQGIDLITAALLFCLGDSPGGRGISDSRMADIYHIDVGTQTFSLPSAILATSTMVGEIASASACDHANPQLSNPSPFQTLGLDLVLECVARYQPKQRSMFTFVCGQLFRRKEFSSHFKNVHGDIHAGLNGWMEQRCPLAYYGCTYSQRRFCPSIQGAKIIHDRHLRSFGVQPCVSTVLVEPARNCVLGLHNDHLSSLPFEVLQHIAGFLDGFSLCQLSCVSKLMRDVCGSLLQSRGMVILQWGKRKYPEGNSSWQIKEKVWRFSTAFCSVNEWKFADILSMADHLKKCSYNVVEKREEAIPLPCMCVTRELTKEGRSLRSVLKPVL
UniProt Q96IG2: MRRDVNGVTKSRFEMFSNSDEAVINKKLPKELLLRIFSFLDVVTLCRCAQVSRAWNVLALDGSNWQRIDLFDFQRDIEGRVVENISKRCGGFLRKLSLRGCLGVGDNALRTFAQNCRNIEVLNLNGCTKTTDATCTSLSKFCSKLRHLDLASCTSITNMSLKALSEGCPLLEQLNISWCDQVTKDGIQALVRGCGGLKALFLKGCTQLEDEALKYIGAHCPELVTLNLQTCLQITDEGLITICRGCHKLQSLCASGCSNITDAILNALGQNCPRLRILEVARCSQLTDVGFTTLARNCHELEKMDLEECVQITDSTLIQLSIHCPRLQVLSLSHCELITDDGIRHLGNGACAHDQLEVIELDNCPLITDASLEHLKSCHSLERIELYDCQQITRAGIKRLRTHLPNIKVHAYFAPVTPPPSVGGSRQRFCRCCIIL
UniProt P14324: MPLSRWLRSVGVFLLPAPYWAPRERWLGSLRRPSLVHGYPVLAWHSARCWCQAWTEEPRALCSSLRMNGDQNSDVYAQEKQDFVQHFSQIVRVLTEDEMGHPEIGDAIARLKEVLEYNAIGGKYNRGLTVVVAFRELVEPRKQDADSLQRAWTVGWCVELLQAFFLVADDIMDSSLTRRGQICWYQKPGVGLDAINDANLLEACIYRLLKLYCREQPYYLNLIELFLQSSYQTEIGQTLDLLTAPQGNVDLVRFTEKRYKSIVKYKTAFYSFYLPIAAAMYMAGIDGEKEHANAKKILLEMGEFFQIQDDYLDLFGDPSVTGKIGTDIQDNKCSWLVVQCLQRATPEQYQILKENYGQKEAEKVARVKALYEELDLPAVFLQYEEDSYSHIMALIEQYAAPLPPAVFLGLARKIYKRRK
UniProt P37268: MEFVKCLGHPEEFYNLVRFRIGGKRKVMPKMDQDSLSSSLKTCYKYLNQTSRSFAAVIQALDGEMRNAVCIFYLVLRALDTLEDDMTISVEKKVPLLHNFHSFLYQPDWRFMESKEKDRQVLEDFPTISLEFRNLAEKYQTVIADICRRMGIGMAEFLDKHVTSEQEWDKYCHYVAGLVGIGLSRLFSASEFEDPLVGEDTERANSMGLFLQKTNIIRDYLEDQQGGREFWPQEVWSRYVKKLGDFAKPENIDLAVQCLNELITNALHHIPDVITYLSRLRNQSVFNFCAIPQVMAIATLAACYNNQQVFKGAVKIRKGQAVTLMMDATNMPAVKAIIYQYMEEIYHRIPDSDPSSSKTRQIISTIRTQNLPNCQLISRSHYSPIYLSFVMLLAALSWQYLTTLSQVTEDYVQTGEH
UniProt Q9UK61: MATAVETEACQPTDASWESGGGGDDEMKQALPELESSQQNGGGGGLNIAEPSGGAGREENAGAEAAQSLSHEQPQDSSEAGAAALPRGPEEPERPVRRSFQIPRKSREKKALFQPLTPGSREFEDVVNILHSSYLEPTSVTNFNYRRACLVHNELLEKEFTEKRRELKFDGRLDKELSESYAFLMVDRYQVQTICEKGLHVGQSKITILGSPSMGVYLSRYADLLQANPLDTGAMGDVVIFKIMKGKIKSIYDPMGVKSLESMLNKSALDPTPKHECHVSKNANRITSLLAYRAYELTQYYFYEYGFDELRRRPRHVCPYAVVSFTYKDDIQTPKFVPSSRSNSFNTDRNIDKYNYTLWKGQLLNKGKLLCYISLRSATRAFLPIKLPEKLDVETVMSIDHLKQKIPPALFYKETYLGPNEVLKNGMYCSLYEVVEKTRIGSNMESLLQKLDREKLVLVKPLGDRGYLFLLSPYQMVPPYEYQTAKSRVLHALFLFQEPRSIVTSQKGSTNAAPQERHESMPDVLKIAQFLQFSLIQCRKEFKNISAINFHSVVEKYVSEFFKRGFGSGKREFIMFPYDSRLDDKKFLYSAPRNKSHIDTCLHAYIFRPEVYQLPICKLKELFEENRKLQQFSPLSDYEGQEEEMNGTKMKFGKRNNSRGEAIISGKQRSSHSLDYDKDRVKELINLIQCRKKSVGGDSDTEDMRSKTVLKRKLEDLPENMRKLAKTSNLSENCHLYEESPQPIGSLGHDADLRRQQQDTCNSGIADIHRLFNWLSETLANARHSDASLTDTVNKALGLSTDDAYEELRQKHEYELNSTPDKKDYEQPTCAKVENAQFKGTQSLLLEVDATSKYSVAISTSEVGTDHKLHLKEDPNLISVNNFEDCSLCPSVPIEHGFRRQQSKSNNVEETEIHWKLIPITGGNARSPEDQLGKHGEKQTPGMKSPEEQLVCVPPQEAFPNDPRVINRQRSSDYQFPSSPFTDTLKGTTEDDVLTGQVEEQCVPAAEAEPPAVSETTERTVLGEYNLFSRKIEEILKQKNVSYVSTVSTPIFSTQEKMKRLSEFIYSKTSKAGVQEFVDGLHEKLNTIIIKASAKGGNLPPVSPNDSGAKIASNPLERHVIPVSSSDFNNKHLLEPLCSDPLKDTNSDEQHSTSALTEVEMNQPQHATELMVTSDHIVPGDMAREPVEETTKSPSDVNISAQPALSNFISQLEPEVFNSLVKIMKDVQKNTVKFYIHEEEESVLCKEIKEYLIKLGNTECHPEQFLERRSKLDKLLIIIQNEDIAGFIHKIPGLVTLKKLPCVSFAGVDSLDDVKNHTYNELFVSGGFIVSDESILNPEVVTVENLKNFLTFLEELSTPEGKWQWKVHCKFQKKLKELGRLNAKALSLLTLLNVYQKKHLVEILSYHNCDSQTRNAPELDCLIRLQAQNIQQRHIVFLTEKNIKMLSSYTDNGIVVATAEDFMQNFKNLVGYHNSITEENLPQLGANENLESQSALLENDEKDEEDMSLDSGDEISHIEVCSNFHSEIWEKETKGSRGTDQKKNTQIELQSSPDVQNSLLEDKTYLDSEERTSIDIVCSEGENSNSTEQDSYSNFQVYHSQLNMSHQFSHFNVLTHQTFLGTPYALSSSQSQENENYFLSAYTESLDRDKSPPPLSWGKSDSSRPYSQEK
UniProt P09467: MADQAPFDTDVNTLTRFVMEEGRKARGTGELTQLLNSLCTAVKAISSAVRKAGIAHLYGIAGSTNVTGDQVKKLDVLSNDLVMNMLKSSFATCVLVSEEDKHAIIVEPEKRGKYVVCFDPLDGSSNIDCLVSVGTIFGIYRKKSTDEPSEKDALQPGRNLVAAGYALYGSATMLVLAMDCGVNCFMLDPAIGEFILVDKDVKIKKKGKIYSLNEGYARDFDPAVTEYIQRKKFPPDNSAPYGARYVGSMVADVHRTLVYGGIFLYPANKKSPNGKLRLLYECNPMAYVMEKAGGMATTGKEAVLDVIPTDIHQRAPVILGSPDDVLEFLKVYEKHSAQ
UniProt P22570: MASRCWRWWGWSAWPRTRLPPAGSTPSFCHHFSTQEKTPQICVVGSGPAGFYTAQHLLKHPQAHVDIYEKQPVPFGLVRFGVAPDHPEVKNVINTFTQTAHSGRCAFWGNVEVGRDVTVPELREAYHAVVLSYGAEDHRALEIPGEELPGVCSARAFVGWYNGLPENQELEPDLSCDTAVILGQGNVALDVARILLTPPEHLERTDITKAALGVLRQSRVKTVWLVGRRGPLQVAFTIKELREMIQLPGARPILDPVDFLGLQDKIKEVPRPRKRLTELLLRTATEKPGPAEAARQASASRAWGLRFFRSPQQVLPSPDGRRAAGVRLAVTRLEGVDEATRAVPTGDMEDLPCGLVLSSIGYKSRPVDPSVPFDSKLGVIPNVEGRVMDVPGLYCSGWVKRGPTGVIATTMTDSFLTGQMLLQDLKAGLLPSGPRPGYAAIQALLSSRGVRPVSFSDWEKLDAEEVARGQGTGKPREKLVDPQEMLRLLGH

Compound: CC1Cc2ccccc2N1C(=O)C1CCCN(C1)C(=O)CCl (mixture of isomers) [TRIM25 ligand 11 (diastereomer mixture)]
Test: probe-labelled cysteine peptide fold change vs DMSO (competition) (log2 fold change); higher = less target engagement (more negative = stronger competition)
Conditions: THP-1, incubation time: 4 h
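Note: competitive chemoproteomic profiling in live THP-1 cells with an iodoacetamide desthiobiotin (IA-DTB) probe, comparing probe-labelled peptide intensities in compound-treated cells against DMSO-treated controls.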

Target | probe-labelled cysteine peptide fold change (10 µM) | probe-labelled cysteine peptide fold change (50 µM)
FCHSD1_Q86WN1_471_ALPCPAHVVFR (UniProt Q86WN1) | -0.0327 | 0.0485
FASN_P49327_2010+2024_EACPELDYFVVFSSVSCGR (UniProt P49327) | 0.54 | 0.245
FBXL18_Q96ME1_383_KAEDDIDSSILETLVASCCNLR (UniProt Q96ME1) | -0.222 | -0.0106
FBXW2_Q9UKT8_189_LWDVSTGQCVYGIQTHTCAAVK (UniProt Q9UKT8) | 0.114 | 0.156
FBXO4_Q9UKT5_283_VCEVVDGFIYVANAEAHK (UniProt Q9UKT5) | 0.252 | 0.166
FBXO22_Q8NEZ5_365_KFFPSVPLFGFFGNGEIGCDR (UniProt Q8NEZ5) | -0.147 | 0.0467
FARSB_Q9NSD9_76_YDLLCLEGLVR (UniProt Q9NSD9) | 0.226 | 0.113
FARSB_Q9NSD9_255_NIFIECTGTDFTK (UniProt Q9NSD9) | 0.133 | 0.157
FASN_P49327_1992_DGLLENQTPEFFQDVCKPK (UniProt P49327) | 0.00613 | 0.00399
FASTKD1_Q53R41_733_VDFECILDK (UniProt Q53R41) | 0.000572 | -0.0254
FCF1_Q9Y324_105_CIPCITDCVMAEIEK (UniProt Q9Y324) | 0.0823 | 0.0322
FAM160B1_Q5W0V3_78_APVTDTNIPSHLEQMLDILVQEENERESGETGPCMEYLLHHK (UniProt Q5W0V3) | 0.212 | 0.28
FERMT1_Q9BQL6_423_GCEVVPDVNVAGR (UniProt Q9BQL6) | -0.029 | -0.106
FBH1_Q8NFZ0_580_TLENFFASADEELTIDHVPIWCK (UniProt Q8NFZ0) | 0.0226 | 0.0256
FBXL12_Q9NXK8_310_GLPHCMVIVR (UniProt Q9NXK8) | -0.133 | -0.0991
FBXO4_Q9UKT5_330_HEWQDEFSHIMAMTDPAFGSSGRPLLVLSCISQGDVKR (UniProt Q9UKT5) | 0.00118 | -0.139
FASN_P49327_1186_LLSAACR (UniProt P49327) | -0.0481 | 0.0194
FBXW8_Q8N3Y1_214_GAVSELEHVPDTVLCDVHSHDGVVIAGYTSGDVR (UniProt Q8N3Y1) | 0.16 | 0.103
FASN_P49327_1564_HAQPTCPGAQLCTVYYASLNFR (UniProt P49327) | -0.0207 | 0.000581
FAM126A_Q9BYI3_401_ETTGESCK (UniProt Q9BYI3) | -0.207 | -0.348
FAR1_Q8WVX9_111_EVIIDSTNIIFHCAATVR (UniProt Q8WVX9) | 0.259 | 0.222

Target | probe-labelled cysteine peptide fold change (10 µM) | probe-labelled cysteine peptide fold change (50 µM)
FASN_P49327_135_GTHTGVWVGVSGSETSEALSRDPETLVGYSMVGCQR (UniProt P49327) | 0.0623 | -0.0891
FANCB_Q8NB91_543_LSTNPFPAPYLMPCEIGLEAK (UniProt Q8NB91) | -0.275 | -0.23
FBXO38_Q6PIJ6_39_DYMNQLSHEVLCHIFR (UniProt Q6PIJ6) | -0.0649 | 0.0174
FBXO30_Q8TB52_725_EEAIPLPCMCVTR (UniProt Q8TB52) | 0.13 | 0.153
FBXL20_Q96IG2_378_SCHSLER (UniProt Q96IG2) | 0.154 | -0.178
FARSB_Q9NSD9_362_ADIIHACDIVEDAAIAYGYNNIQMTLPK (UniProt Q9NSD9) | 0.162 | 0.139
FAM129B_Q96TA1_334_AEVCVR (UniProt Q96TA1) | 0.00142 | 0.0861
FANCG_O15287_417_AQDALTLCEELLSR (UniProt O15287) | -0.00868 | -0.0211
FAM136A_Q96C01_114_CVDDHMHLIPTMTK (UniProt Q96C01) | -0.0626 | -0.0428
FBXO9_Q9UK97_220_SLEQLSLVCR (UniProt Q9UK97) | 0.14 | 0.27
FER_P16591-3_23_DQLESGFGSQSCK (UniProt P16591) | -0.121 | -0.221
FAM20B_O75063_331_SILAPLYQCCIIR (UniProt O75063) | -0.0183 | 0.25
FASTKD2_Q9NYY8_366_SLILLDECSK (UniProt Q9NYY8) | 0.238 | 0.0015
FAM208B_Q5VWN6_186_VIPILSTLNCALLETKK (UniProt Q5VWN6) | -0.356 | -0.372
FES_P07332_8_GFSSELCSPQGHGVLQQMQEAELR (UniProt P07332) | 0.0794 | -0.137
FDPS_P14324_333_CSWLVVQCLQR (UniProt P14324) | -0.00731 | -0.0276
FASN_P49327_2468_TGGAYGEDLGADYNLSQVCDGK (UniProt P49327) | -0.0288 | -0.123
FAM129A_Q9BZQ8_516_ALASTCKPELQK (UniProt Q9BZQ8) | 0.00794 | -0.0291
FAM129A_Q9BZQ8_177_HGYFCFHEAADQKR (UniProt Q9BZQ8) | -0.15 | -0.0236
FDFT1_P37268_172_YCHYVAGLVGIGLSR (UniProt P37268) | 0.0374 | 0.156
FASN_P49327_634_CPPGVVPACHNSK (UniProt P49327) | 0.28 | -0.246

Target | probe-labelled cysteine peptide fold change (10 µM) | probe-labelled cysteine peptide fold change (50 µM)
FBXO30_Q8TB52_570_RFCPSIQGAK (UniProt Q8TB52) | 0.00556 | 0.152
FDX1_P10109_152+155_LGCQICLTK (UniProt P10109) | -0.12 | -0.14
FAM126A_Q9BYI3_57_VIQEPQSELLEPVCHQLFEFYR (UniProt Q9BYI3) | -0.0142 | 0.114
FASTKD2_Q9NYY8_163_KLSEECNSLSDVLDAFSK (UniProt Q9NYY8) | -0.139 | 0.0616
FAM91A1_Q658Y4_653_NRVDLQHLCGYVTMLNASSQLADR (UniProt Q658Y4) | -0.111 | -0.0465
FASN_P49327_779_PSCTIIPLMK (UniProt P49327) | 0.0237 | 0.144
FASN_P49327_1448+1459_AINCATSGVVGLVNCLR (UniProt P49327) | -0.0183 | -0.0543
FBXL20_Q96IG2_179_ALSEGCPLLEQLNISWCDQVTK (UniProt Q96IG2) | 0.0297 | -0.00366
FANCI_Q9NVI1_594_CLSQQADVR (UniProt Q9NVI1) | 0.118 | 0.0694
FCHSD2_O94868_200_SECNSK (UniProt O94868) | -0.0838 | -0.0373
FBXW11_Q9UKB1_100_MCHYQHGHINSYLK (UniProt Q9UKB1) | 0.0217 | 0.0175
FASN_P49327_1403_SFYGSTLFLCR (UniProt P49327) | -0.00625 | 0.334
FANCD2_Q9BXW9_1342_LLHHLCGHSK (UniProt Q9BXW9) | -0.000318 | -0.0878
FDPS_P14324_204_PGVGLDAINDANLLEACIYR (UniProt P14324) | 0.293 | 0.219
FAM208A_Q9UK61_318_HVCPYAVVSFTYK (UniProt Q9UK61) | -0.153 | -0.00352
FBP1_P09467_93_SSFATCVLVSEEDK (UniProt P09467) | 0.153 | 0.202
FCGRT_P55899_182_ELTFLLFSCPHR (UniProt P55899) | 0.0117 | 0.0477
FDFT1_P37268_6_CLGHPEEFYNLVR (UniProt P37268) | -0.139 | -0.148
FAM129A_Q9BZQ8_177_HGYFCFHEAADQK (UniProt Q9BZQ8) | 0.0728 | 0.116
FASN_P49327_2292_AAPLDSIHSLAAYYIDCIR (UniProt P49327) | 0.0728 | 0.023
FCF1_Q9Y324_93_LDLVQSMMDCLYAK (UniProt Q9Y324) | 0.136 | 0.138

Target | probe-labelled cysteine peptide fold change (10 µM) | probe-labelled cysteine peptide fold change (50 µM)
FAM193A_P78312_106_LGTTTHDTCSEDTYSTLLQR (UniProt P78312) | 0.151 | -0.0956
FBXL18_Q96ME1_557_HLTLAQLPSVLTGSGLVNIGLQCQQLR (UniProt Q96ME1) | -0.202 | -0.471
FBLN1_P23142_494_RGYQLSDVDGVTCEDIDECALPTGGHICSYR (UniProt P23142) | 0.372 | 0.293
FASN_P49327_1558_HAQPTCPGAQLCTVYYASLNFR (UniProt P49327) | -0.0325 | -0.235
FAM208A_Q9UK61_1138_HLLEPLCSDPLK (UniProt Q9UK61) | 0.0102 | -0.117
FDXR_P22570_105_CAFWGNVEVGR (UniProt P22570) | 0.0353 | 0.00422
FAM160B1_Q5W0V3_507_NYTEYKPLCPEDK (UniProt Q5W0V3) | -0.0533 | -0.172
FBXL19_Q6PCT2_125_FGLSLMECTICNEIVHPGCLK (UniProt Q6PCT2) | 0.0269 | 0.0183
FECH_P22830_360_ECGVENIR (UniProt P22830) | -0.00363 | 0.0589
FBXL15_Q9H469_150_LSLAHCDWVDGLALR (UniProt Q9H469) | 0.107 | 0.00341
FGD2_Q7Z6J4_548_GSSATPDQSLMCSFLQLIGDK (UniProt Q7Z6J4) | 0.332 | -0.12
FER_P16591_690_NCLVGENNVLK (UniProt P16591) | 0.0304 | 0.141
FASN_P49327_634+642_CPPGVVPACHNSK (UniProt P49327) | 0.0526 | -0.299
FDXR_P22570_42_TPQICVVGSGPAGFYTAQHLLK (UniProt P22570) | -0.14 | 0.136
FASN_P49327_1759_CLATHGR (UniProt P49327) | 0.0351 | 0.12
FBXL20_Q96IG2_135_TTDATCTSLSK (UniProt Q96IG2) | 0.0516 | -0.102
FAM49B_Q9NUQ9_223_NLPIENTTDCLSTMASVCR (UniProt Q9NUQ9) | -0.148 | -0.054
FAM241A_Q8N8J7_2_CSAGELLR (UniProt Q8N8J7) | 0.306 | 0.559
FCF1_Q9Y324_93_AKLDLVQSMMDCLYAK (UniProt Q9Y324) | 0.168 | 0.0918
